Assay in all cases: co-IP; nuclear extract of intestinal crypt cells of WT or p300 S89A mice; 100-500 ug nuclear protein in CoIP buffer (25 mM Tris-HCl pH 8.0, 1% NP40, 5% glycerol, 150 mM NaCl, 1 mM EDTA, 5 mM DTT); anti-CBP, anti-p300, anti-14-3-3ε or normal IgG overnight at 4 °C, Dynabeads Protein A; immunoblot for β-catenin, p300 or 14-3-3ε, densitometry
Test [1] concerns the target p300 (Kat3B/E1A-binding protein, 300 kDa), wild type mouse (mouse (endogenous in intestinal crypt cells)) (UniProt B2RWS6).
Test [2] concerns the target CBP (Kat3A/CREBBP, cAMP response element binding protein (CREB)-binding protein) (mouse (endogenous in intestinal crypt cells)) (UniProt P45481).
Test [3] concerns the target p300 S89A (knock-in point mutant of mouse p300) (mouse (endogenous in intestinal crypt cells)) (UniProt B2RWS6).

Protein sequences, listed by entry. Tags and fused reporters are not part of them. Lines headed by an entry give the natural chain unless they say otherwise; changes in a name come on top.
UniProt B2RWS6: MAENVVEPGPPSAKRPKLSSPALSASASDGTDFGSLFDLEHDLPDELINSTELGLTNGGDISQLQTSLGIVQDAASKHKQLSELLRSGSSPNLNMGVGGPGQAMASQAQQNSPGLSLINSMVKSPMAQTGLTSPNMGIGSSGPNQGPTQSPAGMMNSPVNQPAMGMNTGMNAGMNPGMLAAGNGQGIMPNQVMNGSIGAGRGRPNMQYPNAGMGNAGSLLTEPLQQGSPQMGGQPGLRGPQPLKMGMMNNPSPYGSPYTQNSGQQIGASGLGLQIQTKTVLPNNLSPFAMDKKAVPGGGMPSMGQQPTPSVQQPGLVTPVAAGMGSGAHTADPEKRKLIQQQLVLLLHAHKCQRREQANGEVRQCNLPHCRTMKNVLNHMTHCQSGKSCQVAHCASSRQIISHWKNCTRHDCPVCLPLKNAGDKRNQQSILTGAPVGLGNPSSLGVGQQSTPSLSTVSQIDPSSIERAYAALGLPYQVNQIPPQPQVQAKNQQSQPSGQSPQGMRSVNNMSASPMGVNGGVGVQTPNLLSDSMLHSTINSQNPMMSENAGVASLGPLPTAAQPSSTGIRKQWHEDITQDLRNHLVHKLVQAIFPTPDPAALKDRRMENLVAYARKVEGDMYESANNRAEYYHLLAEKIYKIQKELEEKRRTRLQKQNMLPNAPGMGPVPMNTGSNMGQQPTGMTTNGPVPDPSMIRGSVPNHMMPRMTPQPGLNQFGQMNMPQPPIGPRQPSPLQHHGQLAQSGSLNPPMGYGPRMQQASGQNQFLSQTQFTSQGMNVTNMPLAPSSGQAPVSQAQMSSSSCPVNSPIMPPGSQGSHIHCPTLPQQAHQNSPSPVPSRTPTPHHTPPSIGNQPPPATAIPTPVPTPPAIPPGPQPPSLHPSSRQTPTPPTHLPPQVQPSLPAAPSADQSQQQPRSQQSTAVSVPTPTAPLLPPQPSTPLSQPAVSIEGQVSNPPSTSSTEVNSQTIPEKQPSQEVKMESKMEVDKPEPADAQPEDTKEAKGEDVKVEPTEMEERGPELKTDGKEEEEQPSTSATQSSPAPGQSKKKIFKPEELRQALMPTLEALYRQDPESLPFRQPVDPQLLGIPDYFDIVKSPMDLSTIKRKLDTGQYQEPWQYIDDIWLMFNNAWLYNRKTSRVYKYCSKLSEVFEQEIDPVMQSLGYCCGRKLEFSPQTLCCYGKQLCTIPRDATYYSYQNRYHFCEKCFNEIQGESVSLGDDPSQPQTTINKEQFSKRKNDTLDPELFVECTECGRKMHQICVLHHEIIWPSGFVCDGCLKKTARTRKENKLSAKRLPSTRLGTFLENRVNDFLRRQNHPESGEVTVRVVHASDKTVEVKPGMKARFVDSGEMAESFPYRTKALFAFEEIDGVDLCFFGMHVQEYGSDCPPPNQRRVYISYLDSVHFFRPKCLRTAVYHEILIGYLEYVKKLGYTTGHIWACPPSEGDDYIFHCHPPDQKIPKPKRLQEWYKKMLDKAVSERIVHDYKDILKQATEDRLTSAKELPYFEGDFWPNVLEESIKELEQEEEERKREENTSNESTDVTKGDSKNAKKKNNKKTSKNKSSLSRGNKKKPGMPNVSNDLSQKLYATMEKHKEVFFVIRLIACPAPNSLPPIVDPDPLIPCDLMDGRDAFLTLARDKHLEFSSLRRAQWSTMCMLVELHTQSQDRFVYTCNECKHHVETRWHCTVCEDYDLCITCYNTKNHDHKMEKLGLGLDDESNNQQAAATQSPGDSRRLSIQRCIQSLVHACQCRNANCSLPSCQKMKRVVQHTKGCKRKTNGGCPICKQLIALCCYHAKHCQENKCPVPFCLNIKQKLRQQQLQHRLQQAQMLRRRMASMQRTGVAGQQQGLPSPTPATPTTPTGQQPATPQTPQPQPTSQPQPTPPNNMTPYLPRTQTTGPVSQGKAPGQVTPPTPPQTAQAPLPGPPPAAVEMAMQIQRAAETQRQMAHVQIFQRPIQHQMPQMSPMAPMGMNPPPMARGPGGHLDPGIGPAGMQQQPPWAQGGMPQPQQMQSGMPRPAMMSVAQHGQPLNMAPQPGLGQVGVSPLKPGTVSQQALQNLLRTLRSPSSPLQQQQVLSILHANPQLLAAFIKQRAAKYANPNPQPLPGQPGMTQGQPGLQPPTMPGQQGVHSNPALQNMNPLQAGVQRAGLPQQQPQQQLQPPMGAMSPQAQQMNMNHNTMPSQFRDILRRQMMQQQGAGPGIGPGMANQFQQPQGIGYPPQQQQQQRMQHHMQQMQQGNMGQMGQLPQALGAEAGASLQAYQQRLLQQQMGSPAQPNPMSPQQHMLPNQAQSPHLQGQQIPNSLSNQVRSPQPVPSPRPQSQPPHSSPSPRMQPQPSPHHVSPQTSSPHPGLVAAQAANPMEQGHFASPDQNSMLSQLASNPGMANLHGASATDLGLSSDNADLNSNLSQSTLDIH
UniProt P45481: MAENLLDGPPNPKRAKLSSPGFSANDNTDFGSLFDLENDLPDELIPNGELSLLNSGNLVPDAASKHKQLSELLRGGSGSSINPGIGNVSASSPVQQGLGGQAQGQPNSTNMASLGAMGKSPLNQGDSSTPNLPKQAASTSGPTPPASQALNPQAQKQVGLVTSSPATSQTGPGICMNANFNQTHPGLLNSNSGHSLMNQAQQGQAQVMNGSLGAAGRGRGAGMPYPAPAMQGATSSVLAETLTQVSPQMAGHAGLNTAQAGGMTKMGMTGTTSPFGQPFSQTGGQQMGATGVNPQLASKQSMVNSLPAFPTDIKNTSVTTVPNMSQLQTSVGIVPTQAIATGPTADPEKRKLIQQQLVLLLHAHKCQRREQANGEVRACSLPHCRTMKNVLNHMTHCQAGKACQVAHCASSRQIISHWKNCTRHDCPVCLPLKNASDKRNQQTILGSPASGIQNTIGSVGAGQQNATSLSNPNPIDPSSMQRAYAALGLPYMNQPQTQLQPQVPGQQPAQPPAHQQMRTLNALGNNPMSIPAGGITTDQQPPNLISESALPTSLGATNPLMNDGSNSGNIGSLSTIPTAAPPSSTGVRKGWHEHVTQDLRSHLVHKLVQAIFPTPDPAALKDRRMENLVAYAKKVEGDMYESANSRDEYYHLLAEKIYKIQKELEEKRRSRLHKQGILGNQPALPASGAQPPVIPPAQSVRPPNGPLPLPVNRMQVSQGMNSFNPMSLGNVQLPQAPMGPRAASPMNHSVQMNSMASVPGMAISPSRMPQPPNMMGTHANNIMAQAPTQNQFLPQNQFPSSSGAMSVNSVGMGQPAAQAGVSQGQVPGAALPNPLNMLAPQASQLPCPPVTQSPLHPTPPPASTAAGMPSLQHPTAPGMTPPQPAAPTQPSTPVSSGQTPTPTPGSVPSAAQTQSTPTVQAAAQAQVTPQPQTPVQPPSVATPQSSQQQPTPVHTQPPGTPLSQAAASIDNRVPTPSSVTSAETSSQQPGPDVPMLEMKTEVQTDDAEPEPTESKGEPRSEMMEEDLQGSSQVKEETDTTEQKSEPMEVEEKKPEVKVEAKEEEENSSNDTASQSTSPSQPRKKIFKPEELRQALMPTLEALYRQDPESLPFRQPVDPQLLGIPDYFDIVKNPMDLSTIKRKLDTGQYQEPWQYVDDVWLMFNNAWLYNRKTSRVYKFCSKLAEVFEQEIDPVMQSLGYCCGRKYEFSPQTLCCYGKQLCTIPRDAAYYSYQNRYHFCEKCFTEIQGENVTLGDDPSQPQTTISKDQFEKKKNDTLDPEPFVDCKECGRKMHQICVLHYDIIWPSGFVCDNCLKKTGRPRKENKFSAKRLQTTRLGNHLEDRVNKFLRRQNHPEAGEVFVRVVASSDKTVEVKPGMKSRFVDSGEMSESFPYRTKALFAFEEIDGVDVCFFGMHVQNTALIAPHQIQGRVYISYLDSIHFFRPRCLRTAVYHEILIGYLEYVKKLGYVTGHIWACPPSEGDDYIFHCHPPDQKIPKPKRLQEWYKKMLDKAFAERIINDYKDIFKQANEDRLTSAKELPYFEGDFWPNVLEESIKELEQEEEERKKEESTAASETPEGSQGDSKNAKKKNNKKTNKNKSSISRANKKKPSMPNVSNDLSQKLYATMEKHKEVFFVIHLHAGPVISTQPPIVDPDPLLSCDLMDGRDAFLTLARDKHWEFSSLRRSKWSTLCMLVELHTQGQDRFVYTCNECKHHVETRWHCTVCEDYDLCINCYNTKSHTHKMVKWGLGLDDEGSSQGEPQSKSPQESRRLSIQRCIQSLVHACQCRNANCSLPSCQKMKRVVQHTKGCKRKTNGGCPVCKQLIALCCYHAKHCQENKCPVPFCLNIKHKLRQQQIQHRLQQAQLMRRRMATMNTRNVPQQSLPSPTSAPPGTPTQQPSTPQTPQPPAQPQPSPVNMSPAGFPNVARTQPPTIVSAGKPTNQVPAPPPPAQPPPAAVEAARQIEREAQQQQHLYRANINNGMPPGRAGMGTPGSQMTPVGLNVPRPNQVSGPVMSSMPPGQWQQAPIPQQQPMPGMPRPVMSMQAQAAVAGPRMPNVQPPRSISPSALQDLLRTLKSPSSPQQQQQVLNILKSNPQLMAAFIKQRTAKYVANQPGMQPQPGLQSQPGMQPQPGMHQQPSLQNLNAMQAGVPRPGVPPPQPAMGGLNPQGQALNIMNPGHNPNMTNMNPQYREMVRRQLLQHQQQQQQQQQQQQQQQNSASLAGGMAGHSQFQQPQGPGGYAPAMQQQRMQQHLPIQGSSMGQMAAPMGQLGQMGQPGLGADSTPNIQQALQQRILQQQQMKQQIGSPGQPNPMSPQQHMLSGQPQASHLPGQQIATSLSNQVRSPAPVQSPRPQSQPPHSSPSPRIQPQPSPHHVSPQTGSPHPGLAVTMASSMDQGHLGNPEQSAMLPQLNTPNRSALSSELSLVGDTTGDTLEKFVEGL
UniProt P62259: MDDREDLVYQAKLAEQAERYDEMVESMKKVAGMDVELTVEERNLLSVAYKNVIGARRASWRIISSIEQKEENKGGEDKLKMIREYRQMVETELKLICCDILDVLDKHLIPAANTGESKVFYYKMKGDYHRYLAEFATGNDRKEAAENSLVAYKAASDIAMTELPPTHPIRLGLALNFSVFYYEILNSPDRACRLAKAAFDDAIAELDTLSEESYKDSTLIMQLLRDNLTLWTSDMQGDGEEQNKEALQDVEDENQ
UniProt Q02248: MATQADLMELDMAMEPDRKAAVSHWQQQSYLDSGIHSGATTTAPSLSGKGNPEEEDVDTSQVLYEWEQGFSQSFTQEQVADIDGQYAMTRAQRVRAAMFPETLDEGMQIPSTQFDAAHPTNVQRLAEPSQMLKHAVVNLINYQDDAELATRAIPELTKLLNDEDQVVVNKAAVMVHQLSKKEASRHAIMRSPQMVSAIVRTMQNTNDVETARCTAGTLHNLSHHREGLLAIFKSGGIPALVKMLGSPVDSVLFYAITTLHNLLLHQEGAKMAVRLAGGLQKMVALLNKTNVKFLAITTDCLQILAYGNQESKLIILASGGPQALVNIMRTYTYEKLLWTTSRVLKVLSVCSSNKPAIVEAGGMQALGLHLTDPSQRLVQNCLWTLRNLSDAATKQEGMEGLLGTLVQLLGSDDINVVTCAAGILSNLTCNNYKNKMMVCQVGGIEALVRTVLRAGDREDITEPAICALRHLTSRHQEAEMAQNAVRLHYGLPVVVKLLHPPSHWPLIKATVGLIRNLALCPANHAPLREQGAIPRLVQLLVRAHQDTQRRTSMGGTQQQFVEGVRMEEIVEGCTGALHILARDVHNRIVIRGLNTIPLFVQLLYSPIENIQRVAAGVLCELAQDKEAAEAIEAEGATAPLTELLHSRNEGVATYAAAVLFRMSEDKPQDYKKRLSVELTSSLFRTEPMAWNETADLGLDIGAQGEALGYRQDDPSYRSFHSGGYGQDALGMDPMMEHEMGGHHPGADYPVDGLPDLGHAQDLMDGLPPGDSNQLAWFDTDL

Results are given in words; binding and its absence hold for the method and conditions named. Binding seen in cells or lysates may run through a third protein. Some results given as binding are weak or reduced against the parent protein; the word gives no strength.

With “14-3-3 epsilon (from UniProt P62259 1-255)”, the binding result in test [1] is given as “binds”.
In the case of β-catenin (from UniProt Q02248 1-781), the binding entry in test [2], in test [1] and in test [3] was “binds” each time.

These data come from paper PMC7999107.
